Measurements published in the supplement of paper PMC4683952.
Some of the results follow. Rule as the data show it: active = 2 or more and inactive = the rest. Most values lie within the scatter of the assay; repeated measurements hardly agree.

test system: Lgr5 (MarsCy1-Lgr5-EGFP, U2OS); test: cell-surface Lgr5 expression (SCi1 fluorescence, background-subtracted) relative to WT DMSO (fold of DMSO control); higher = more Lgr5 at the plasma membrane; settings: U2OS MarsCy1-Lgr5-EGFP stable; treatment time: overnight; library: ActiProbe-5K (TimTec); 25 µM

SMILES	cell-surface Lgr5 expression
C1CCN(c2nc(N3CCCCC3)nc(N3CCNCC3)n2)CC1	inactive: 0.979
O=C(c1ccccc1)n1c(=S)nc2ncccn21	inactive: 1.04
NC(c1ccccc1)c1cc2ccccc2o1 (configuration not stated)	inactive: 1.26
C#CCOc1ccc(/C=N\n2cnnc2N/N=C/c2ccc(OCC#C)c(OC)c2)cc1OC	inactive: 1.04
Cc1cn(CC(C)C)c(=O)[nH]c1=O	inactive: 1.5
Cc1nonc1-c1noc(CCC(=O)O)n1	inactive: 1.01
N#Cc1c(SCCN2CCOCC2)sc2c(=O)[nH]c(=O)[nH]c12	inactive: 1.31
Cc1ccc(/C=N\N=C/c2ccc(C)s2)s1	inactive: 0.991
O=[N+]([O-])c1ccc(-n2ccnc2)c(F)c1	inactive: 1.08
Cc1ccc(C2=C(C#N)C(N)=C(C#N)C3=CCCC32)c(C)c1 (configuration not stated)	inactive: 1.38
CC(=O)OC(C)(C#CCN1CCCC1)C(C)(C)C (configuration not stated)	inactive: 1.29
C(=Nc1c2ccccc2nc2ccccc12)c1ccco1	inactive: 1.07
CN(C)CCCN1C(=O)C(O)=C(C(=O)c2cccs2)C1c1cccs1 (configuration not stated)	inactive: 1.21
c1ccc(C2=Nc3ccccc3C(c3ccccc3)(c3ccccc3)N2)cc1	inactive: 0.867
O=C(O)CN1C(=O)/C(=C\c2ccco2)SC1=S	inactive: 1.43
C(=N/c1c2ccccc2nc2ccccc12)/c1cccc2c1OCOC2	inactive: 1.65
CCCCc1ccc(C2C3=C(CC(C)(C)CC3=O)OC3=C2C(=O)CC(C)(C)C3)s1	inactive: 1.41
O=C(Nc1nccs1)C1CCCCC1	inactive: 0.996
O=C(NNC(=O)c1ccco1)c1ccco1	inactive: 0.981
Oc1ccc2ccccc2c1/C=N\N1CCN(C2c3ccccc3-c3ccccc32)CC1	inactive: 1.01
O=c1[nH]n(CC2COC3(CCCCC3)O2)c(=O)c2ccccc12 (configuration not stated)	inactive: 1.54
Nc1ccc2nn(-c3ccc(F)cc3)nc2c1	inactive: 0.802
C=CCNC(=S)NNC(=O)C12CC3CC(CC(C3)C1)C2	inactive: 1.1

Quoted from the listing:
Cc1cn(CC(C)C)c(=O)[nH]c1=O – cell-surface Lgr5 expression: inactive: 1.5
Oc1ccc2ccccc2c1/C=N\N1CCN(C2c3ccccc3-c3ccccc32)CC1 – cell-surface Lgr5 expression: inactive: 1.01
C1CCN(c2nc(N3CCCCC3)nc(N3CCNCC3)n2)CC1 – cell-surface Lgr5 expression: inactive: 0.979

More records:

SMILES	cell-surface Lgr5 expression
c1(/c2c(n[nH]n2)c(/c2c1n[nH]n2)=N\NC(=S)N)=N/NC(=S)N	inactive: 0.806
c1ccc(-c2csc(N3CCC(c4ccccc4)C3)n2)cc1 (configuration not stated)	inactive: 0.985
Cn1cccc1/C=N/NC(=O)c1cc(C(C)(C)C)n[nH]1	inactive: 1.27
CC1(C)CC2(C)OC(=O)N(N)C2(C)c2ccccc21 (configuration not stated)	inactive: 1.07
C=CCC1NCCc2c(Br)cccc21.Cl (configuration not stated)	inactive: 1.43
S=C1COC(c2ccc(Br)cc2)N1c1ccc(Br)cc1 (configuration not stated)	inactive: 1.01
c1cnc2c(c1)NC1(CCCCC1)N2	inactive: 1.71
CC1(C)C2CCC1(CS(=O)(=O)NCC13CC4CC(CC(C4)C1)C3)C(=O)C2 (configuration not stated)	inactive: 1.22
CC1(C)CC(=O)c2sc(N)nc2C1	inactive: 1.13
S=c1n(CN2CCC(c3ccccc3)C2)nc(Cc2ccccc2)n1-c1ccccc1 (configuration not stated)	inactive: 1.14
O=C1NC(=S)N/C1=C/c1cc(Br)c(Sc2ccc(Cl)cc2)o1	inactive: 1.47
Fc1ccc2[nH]c3nc4ccccc4nc3c2c1	inactive: 1.44
Nc1ncnc2sc3c(c12)CCCC3	inactive: 1.08
COc1ccc2c(c1)S(=O)(=O)C(C)=C2N	inactive: 1.41
[N+](c1cc(N\N=C(\C#N)C#N)ccc1Cl)([O-])=O	inactive: 1.01
Oc1ccc2cc(O)ccc2c1	inactive: 1.01
c1csc(Cc2nc(-c3cccs3)no2)c1	inactive: 0.726
O=[N+]([O-])c1ccc(-n2cc(-c3ccccc3)nc/c2=N\N(Cc2ccccc2)c2ccccc2)cc1	inactive: 1.5
O=C(O)C(C(=O)O)C1C=CCC1 (configuration not stated)	inactive: 1.18
FC(F)(F)c1ccc(/C=N/n2c(S)nnc2-c2cccnc2)cc1	inactive: 1.4
CCSc1sc(CC)c(C(=O)O)c1C=O	inactive: 1.22
Cc1cc(S(=O)c2cc(C)cc(C(C)(C)C)c2O)c(O)c(C(C)(C)C)c1	inactive: 0.825
CS(=O)(=O)N/N=C/c1cc(Cl)cc(Br)c1O	inactive: 1.5

SMILES	cell-surface Lgr5 expression
O=CC1C(=O)Nc2ccccc21 (configuration not stated)	inactive: 1.28
CC(C)Cc1nc(C#N)c(N2CCOCC2)o1	inactive: 1.08
Nc1nccc(-c2ccc(Cl)cc2Cl)n1	inactive: 0.937
c1csc(CNCCNCc2cccs2)c1	inactive: 0.696
CCSC1=NCN(CCCC(=O)O)CN1	inactive: 1.11
Cc1n[nH]c(S(=O)CC(=O)O)c1[N+](=O)[O-] (configuration not stated)	inactive: 1.61
CCOC(=O)C1=C(C)NC2=C(C(=O)CC(C)(C)C2)C1c1cc(Br)c(C)s1 (configuration not stated)	inactive: 1.43
Oc1ccc(/C=N\Nc2nncn2/N=C\c2ccc(O)c(O)c2)cc1O	inactive: 1.28
C/C(=N\NC(N)=O)C1CCCCC1	inactive: 1.39
C(=N/c1ccc(-c2ccc(/N=C/c3cccnc3)cc2)cc1)/c1cccnc1	inactive: 1.15
CC(C)S(=O)(=O)c1cc2c(cc1[N+](=O)[O-])n(C)c(=O)c(=O)n2C	inactive: 1.22
Brc1cncc(Br)c1	inactive: 1.09
CCC1CCc2[nH]c(=S)c(C#N)c(C(F)(F)F)c2C1 (configuration not stated)	inactive: 1.23
Nc1nonc1/C(=N\O)N1CCN(c2ccc(Cl)cc2[N+](=O)[O-])CC1	inactive: 1.4
Fc1ccccc1/C=N\N1CCN(C2c3ccccc3-c3ccccc32)CC1	inactive: 1.02
COC(=O)c1cn2c(c1C(=O)OC)CCC2	inactive: 0.971
c1ccc2c(c1)ccc1nnc(-c3c[nH]c4ccccc34)n12	inactive: 1.39
Nc1ccc(F)c(F)c1F	inactive: 1.15
On1nnc2cc(C(F)(F)F)ccc21	inactive: 1.28
CCN(Cc1nonc1C)C(=O)C(C)n1cc([N+](=O)[O-])cn1 (configuration not stated)	inactive: 1.03
Cc1cc(O)nc(SCc2oc(=O)oc2C)n1	inactive: 1.16
